Our source for the binding values is article PMC7978294.

By UniProt entry, the sequences of proteins in these tests, tags left out.
UniProt Q9DC51: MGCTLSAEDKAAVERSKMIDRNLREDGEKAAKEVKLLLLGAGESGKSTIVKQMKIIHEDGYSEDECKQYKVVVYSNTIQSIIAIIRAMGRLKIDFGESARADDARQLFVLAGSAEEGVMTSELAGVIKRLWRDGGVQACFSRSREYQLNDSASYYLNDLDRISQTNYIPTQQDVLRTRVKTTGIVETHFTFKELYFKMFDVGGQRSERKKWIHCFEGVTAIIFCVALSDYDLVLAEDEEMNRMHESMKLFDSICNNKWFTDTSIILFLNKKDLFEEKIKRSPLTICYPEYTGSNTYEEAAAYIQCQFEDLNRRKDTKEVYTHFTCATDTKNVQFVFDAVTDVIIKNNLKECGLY
UniProt B2RSH2: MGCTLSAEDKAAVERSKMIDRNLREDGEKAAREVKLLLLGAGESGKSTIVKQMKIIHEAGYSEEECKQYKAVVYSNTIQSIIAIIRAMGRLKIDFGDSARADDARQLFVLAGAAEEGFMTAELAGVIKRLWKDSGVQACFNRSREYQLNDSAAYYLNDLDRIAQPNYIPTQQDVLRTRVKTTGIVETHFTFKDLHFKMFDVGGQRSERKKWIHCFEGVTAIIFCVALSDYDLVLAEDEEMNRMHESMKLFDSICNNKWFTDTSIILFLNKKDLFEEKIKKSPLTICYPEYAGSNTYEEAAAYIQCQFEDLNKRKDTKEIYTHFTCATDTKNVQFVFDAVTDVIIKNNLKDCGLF
UniProt P52332: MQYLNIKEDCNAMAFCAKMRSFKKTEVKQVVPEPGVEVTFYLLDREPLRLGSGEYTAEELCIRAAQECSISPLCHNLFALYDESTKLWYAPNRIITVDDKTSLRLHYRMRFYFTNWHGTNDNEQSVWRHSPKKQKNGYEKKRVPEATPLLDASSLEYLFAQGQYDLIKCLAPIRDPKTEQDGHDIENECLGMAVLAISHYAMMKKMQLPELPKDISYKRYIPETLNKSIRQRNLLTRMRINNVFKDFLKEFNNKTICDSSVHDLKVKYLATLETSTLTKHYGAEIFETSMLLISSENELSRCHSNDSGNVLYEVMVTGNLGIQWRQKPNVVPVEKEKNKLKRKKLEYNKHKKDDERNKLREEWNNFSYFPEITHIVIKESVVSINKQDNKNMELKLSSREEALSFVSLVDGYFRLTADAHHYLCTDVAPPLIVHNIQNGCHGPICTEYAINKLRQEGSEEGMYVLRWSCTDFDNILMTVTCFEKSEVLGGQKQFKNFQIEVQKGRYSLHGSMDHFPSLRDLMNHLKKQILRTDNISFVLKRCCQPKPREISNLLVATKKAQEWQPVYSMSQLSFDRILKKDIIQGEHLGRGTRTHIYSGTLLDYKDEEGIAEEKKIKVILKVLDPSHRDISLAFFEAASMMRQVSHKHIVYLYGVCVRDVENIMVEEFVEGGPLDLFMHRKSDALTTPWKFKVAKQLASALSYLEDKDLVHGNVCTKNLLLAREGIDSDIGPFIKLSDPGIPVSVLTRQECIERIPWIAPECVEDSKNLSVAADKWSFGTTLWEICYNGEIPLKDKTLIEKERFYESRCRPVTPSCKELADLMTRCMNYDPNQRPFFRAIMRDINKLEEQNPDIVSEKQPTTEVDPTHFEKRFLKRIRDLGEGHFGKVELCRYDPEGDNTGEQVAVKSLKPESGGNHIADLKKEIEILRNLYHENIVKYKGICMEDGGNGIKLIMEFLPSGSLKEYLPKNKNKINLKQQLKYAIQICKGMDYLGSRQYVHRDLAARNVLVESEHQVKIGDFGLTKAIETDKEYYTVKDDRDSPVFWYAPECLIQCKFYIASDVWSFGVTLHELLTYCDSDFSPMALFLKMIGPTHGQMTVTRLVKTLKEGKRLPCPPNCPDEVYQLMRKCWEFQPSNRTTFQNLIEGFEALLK

Test [1] deals with T1, IL-4Rα (IL-4 receptor alpha), endogenous mouse (mouse (endogenous in MEFs and murine BMDMs)) (UniProt P16382).
T1 sequence: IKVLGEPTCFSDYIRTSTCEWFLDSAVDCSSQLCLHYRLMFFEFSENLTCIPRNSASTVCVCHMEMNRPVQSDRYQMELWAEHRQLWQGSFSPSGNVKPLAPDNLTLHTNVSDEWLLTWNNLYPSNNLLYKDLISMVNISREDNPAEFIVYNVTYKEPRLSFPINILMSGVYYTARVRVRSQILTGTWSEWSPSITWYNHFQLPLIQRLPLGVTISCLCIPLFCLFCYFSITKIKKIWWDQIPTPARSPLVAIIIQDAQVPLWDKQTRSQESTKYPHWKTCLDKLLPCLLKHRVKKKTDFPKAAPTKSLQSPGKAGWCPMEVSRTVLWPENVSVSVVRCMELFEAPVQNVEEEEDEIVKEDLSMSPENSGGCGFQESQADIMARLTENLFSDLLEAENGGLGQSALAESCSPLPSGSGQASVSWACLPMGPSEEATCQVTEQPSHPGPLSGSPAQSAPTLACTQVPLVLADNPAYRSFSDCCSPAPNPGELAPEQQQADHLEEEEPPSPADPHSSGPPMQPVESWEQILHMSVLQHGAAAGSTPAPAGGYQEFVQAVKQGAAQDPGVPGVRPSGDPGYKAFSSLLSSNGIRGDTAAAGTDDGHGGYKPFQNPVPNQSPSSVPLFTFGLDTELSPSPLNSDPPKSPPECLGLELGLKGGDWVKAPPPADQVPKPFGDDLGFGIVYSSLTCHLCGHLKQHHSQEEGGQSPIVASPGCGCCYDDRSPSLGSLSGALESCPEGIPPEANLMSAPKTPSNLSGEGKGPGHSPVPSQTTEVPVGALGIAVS
In words: co-IP; endogenous proteins in primary murine BMDMs treated with IL-4 (100 ng/mL, 5 min in Figure 1A); IP: IL-4Rα in Figure 2G, BMDMs with empty vector or dn-Gαi1/3.

For test [2], the target named is T2, IL-4Rα-WT-Flag (full-length mIL-4Rα fused with Flag) (mouse) (UniProt P16382).
T2 sequence: T1 sequence
In words: co-IP; IP: Flag; IL-4Rα-KO BMDMs stably expressing IL-4Rα-WT-Flag or IL-4Rα-ΔIC-Flag, treated with IL-4 (100 ng/mL).

The target in test [3] is T1, IL-4Rα (IL-4 receptor alpha), endogenous mouse (mouse (endogenous in MEFs and murine BMDMs)). In words: co-IP; endogenous proteins in WT and Gαi1/3 DKO MEFs treated with IL-4 (Figure S1H); protocol as in earlier studies.
For test [4] the target is unchanged. In words: co-IP; endogenous proteins in primary murine BMDMs treated with IL-4 (100 ng/mL, 5 min in Figure 1A); IP: IL-4Rα in Figure 2G, BMDMs with empty vector or dn-Gαi1/3. The source holds these as a separate data set.

These are yes or no findings as the source states them, for the method shown. Binding seen in cells or lysates may run through a third protein. Some entries that bind do so weakly or less than the wild type. For some of these results: Tags and fused reporters may be left off the sequences shown.

For the molecule “Gαi3, endogenous mouse (from UniProt Q9DC51 1-354)”, the binding entry in test [1] and in test [2] was “binds” each time.

As to “Gαi1, endogenous mouse (from UniProt B2RSH2 1-354)”, the binding entry in test [1] and in test [2] was “binds” throughout.

Consider “JAK1, endogenous mouse (from UniProt P52332 1-1153) (enzyme)”, for which the binding result in test [3] was “binds”.

B1: APPL1 (adaptor containing a pleckstrin homology (PH) domain, phosphotyrosine-binding (PTB) domain, and leucine zipper motif 1), endogenous mouse (protein, UniProt Q8K3H0 1-707)
chain: MPGIDKLPIEETLEDSPQTRSLLGVFEEDATAISNYMNQLYQAMHRIYDAQNELSAATHLTSKLLKEYEKQRFPLGGDDEVMSSTLQQFSKVIDELSSCHAVLSTQLADAMMFPISQFKERDLKEILTLKEVFQIASNDHDAAINRYSRLSKKRENDKVKYEVTEDVYTSRKKQHQTMMHYFCALNTLQYKKKIALLEPLLGYMQAQISFFKMGSENLNGQLEEFLANIGTSVQNVRREMDGDVETMQQTIEDLEVASDPLYLPDPDPTKFPINRNLTRKAGYLNARNKTGLVSSTWDRQFYFTQGGNLMSQARGDVAGGLAMDIDNCSVMAVDCEDRRYCFQITSFDGKKSSILQAESKKDHEEWICTINNISKQIYLSENPEETAARVNQSALEAVTPSPSFQQRHESLRPGGQSRPPTARTSSSGSLGSESTNLAALSLDSLVAPDTPIQFDIISPVCEDQPGQAKAFGQGGRRTNPFGESGGSTKSETEDSILHQLFIVRFLGSMEVKSDDHPDVVYETMRQILAARAIHNIFRMTESHLLVTCDCLKLIDPQTQVTRLTFPLPCVVLYATHQENKRLFGFVLRTSGGRSESNLSSVCYIFESNNEGEKICDSVGLAKQIALHAELDRRASEKQKEIERVKEKQQKELSKQKQIEKDLEEQSRLIAASSRPNQAGSEGQLVLSSSQSEESDLGEEGKKRESEA
B1: the binding result in test [4] and in test [2] was “binds” each time.
